The results in this text go back to patent US20150147330A1.

Sequences of proteins named here, by UniProt entry; tags and fusion partners are left off. A change or cut given only in a name is not applied to a line headed by its entry. A line that says so, or that is headed by a name, gives the form on record, which may keep a tag or linker. Residues count along the entry.
recombinant GPC3-human Fc (P51654, residues 25-559): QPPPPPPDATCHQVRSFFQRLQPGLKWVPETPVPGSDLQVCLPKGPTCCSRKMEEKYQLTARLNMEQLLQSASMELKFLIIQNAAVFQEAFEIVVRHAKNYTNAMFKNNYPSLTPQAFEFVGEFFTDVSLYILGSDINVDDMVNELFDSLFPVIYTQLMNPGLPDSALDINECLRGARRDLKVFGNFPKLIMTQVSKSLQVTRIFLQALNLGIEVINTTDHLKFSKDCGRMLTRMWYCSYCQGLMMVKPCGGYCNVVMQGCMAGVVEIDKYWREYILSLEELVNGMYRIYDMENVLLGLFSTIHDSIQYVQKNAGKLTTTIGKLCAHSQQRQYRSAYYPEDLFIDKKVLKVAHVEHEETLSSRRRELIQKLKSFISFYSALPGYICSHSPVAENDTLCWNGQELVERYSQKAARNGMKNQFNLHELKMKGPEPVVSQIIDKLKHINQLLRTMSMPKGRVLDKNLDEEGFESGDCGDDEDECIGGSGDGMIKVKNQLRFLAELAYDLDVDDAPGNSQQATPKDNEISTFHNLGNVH
GPC3AHS (recombinant GPC3 without HS) (P51654, form named): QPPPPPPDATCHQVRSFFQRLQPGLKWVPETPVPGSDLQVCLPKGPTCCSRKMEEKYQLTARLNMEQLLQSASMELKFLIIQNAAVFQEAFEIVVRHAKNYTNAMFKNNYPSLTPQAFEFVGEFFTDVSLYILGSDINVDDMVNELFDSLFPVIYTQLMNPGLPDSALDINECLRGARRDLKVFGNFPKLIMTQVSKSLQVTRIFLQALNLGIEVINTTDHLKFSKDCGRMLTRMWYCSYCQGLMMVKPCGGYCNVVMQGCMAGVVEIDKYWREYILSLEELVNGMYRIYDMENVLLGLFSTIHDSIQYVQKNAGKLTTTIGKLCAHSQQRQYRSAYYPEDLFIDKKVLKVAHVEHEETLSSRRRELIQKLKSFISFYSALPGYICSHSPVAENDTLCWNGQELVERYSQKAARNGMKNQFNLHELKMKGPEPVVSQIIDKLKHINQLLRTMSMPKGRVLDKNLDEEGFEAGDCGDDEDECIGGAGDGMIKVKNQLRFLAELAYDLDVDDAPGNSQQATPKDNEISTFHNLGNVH

No constants are given. Whether binding was seen depends on the method and setting. Some entries that bind do so weakly or less than the wild type.

For test [1], the target named is GPC3AHS (recombinant GPC3 without HS) (UniProt P51654). The test is described as follows: ELISA on coated GPC3AHS (weaker signal than on wild type). On the technique in general: ELISA stands for enzyme-linked immunosorbent assay.
The target in test [2] is recombinant GPC3-human Fc (UniProt P51654). The test is described as follows: ELISA on coated recombinant GPC3.

B1: YP8 (antibody, V domains shown)
VH: EVQLVGSGGGLVQPEGSLKLSCAASGFTFKTNAMNWVRQAPGKGLEWVARIRNKTNNYATYYADSVKDRFTISRDDSQSMLYLQMNNLKTEDTAMYFCVAGNSFAYWGQGTLVTVSA
VL: DIVMSQSPSSLAVSVGEKVTVNCKSSQSLLYSNNQKNYLAWYQQKPGQSPKLLIYWASTREYGVPDRFTGSGSGTDFTLTISSVKAEDLAVYYCQQYYNYPLTFGAGTKLELK
Consider B1, for which the binding result in test [1] and in test [2] was “binds” each time.

B2: YP6 (antibody, V domains shown)
VH: EVQLVGSGGGLVQPEGSLKLSCAASGFTFKTNAMNWVRQAPGKGLEWVARIRNKTNNYATYYADSVKDRFTISRDDSQSMLYLQMNNLKTEDTAMYFCVAGNSFAYWGQGTLVTVSA
VL: DIVMSQSPSSLAVSVGEKVTVNCKSSQSLLYSNNQKNYLAWYQQKPGQSPKLLIYWASTREYGVPDRFTGSGSGTDFTLTISSVKAEDLAVYYCQQYYNYPLTFGAGTKLELK
As to B2, the binding entry in test [1] and in test [2] was “binds” in each case.
